TEAD-luciferase reporter activity data for 25 molecules are collected here from the supplement of paper PMC10735217.

The assay deals with HEK293A TEAD-LUC reporter. As to the kind of experiment: TEAD-luciferase reporter activity (YAP activation), robust Z score vs plate; higher = stronger YAP/TEAD activation. To be noted: 24 h. A general note: In a reporter assay the amount or activity of a reporter protein is the signal.

The other results are listed elsewhere or left out. Single values are uncertain here, since repeats match poorly.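 Human kidney-derived cells stably carry a construct in which eight TEAD-binding elements drive luciferase, measured by luminescence in a drug-repurposing library screen. A hit is any compound whose signal exceeds the plate mean by more than five robust Z scores.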

Consider `CC1=C(C(=O)OC(C)C)C(c2cccc([N+](=O)[O-])c2)C(C(=O)OC(C)C)=C(C)N1`, for which the TEAD-luciferase reporter activity runs as follows: (compound concentration: 200 nM) inactive: -0.86; (compound concentration: 2 uM) inactive: 0.434; (compound concentration: 10 uM) inactive: 0.936.
In the same order, the values of `CNCC12CC3CC(CC(C3)C1)C2` are inactive: -0.403, inactive: -1.09 and inactive: -1.38.
As to `CCO/N=C(\c1ccc(Br)cc1)C1CCN(C2(C)CCN(C(=O)c3c(C)cc[n+]([O-])c3C)CC2)CC1`, the TEAD-luciferase reporter activity (compound concentration: 200 nM) is inactive: -0.233, the TEAD-luciferase reporter activity (compound concentration: 2 uM) was inactive: -0.501 and the TEAD-luciferase reporter activity (compound concentration: 10 uM) is inactive: -0.495.
In the same order, the values of `CC(C)=CCSCC(N)C(=O)O` (stereo unspecified) [prenisteine] are inactive: -0.579, inactive: 0.0752 and inactive: -1.35.
For `Cc1cccc(NC(=O)Nc2ccc(-c3csc4ncnc(N)c34)cc2)c1` the same measures were inactive: -2.65, inactive: -2.43 and inactive: -1.76.
For `O=C1c2ccccc2-c2c1c1ccccc1c(=O)n2CC1CC1` the same measures were inactive: 1.54, inactive: -1.07 and inactive: 2.56.
With `CC(C)(C)Sc1c(CC(C)(C)C(=O)O)n(Cc2ccc(Cl)cc2)c2ccc(OCc3ccc4ccccc4n3)cc12` [quiflapon], the TEAD-luciferase reporter activity is inactive: 0.197 (compound concentration: 200 nM), inactive: -0.0347 (compound concentration: 2 uM) and inactive: 3.4 (compound concentration: 10 uM).
With `CCCCCCCC(=O)CC[C@@H]1[C@@H](C/C=C\CCCC(=O)OC(C)C)[C@@H](O)C[C@H]1O` [isopropyl unoprostone], the TEAD-luciferase reporter activity is inactive: -0.102 (compound concentration: 200 nM), inactive: 0.122 (compound concentration: 2 uM) and inactive: 1.35 (compound concentration: 10 uM).
For `O=C(O)Cc1ccccc1Nc1ccccc1` the same measures were inactive: -1.35, inactive: -1.31 and inactive: 0.239.
With `Fc1ccc(CN2CCC(Nc3ccc(C(F)(F)F)nn3)CC2)cc1F`, the TEAD-luciferase reporter activity runs as follows: (compound concentration: 200 nM) inactive: -0.364; (compound concentration: 2 uM) inactive: 0.497; (compound concentration: 10 uM) inactive: -1.99.
In the same order, the values of `CC(C)(C)c1cc(I)c(O)c(CN)c1` are inactive: -1.28, inactive: -0.693 and inactive: 2.
In the case of `CN=C(NC)NCc1ccc(OC)cc1`, the TEAD-luciferase reporter activity (compound concentration: 200 nM) is inactive: -1.04, the TEAD-luciferase reporter activity (compound concentration: 2 uM) was inactive: 0.5 and the TEAD-luciferase reporter activity (compound concentration: 10 uM) is inactive: -1.78.
For `CCNC(=O)[C@H]1O[C@@H](n2cnc3c(N)nc(C#CC(O)c4ccccc4)nc32)[C@H](O)[C@@H]1O` (stereo partly specified) the same measures were inactive: -1.59, inactive: -0.198 and inactive: -0.353.
For `CC[C@H](C)[C@@H]1NC(=O)[C@H](Cc2ccc(O)cc2)NC(=O)CCCSC[C@@H](C(=O)N(CC(=O)N[C@@H](CC(C)C)C(=O)NCC(N)=O)Cc2ccc(F)cc2)NC(=O)[C@H](CC(N)=O)NC(=O)[C@H](CCC(N)=O)NC1=O` the same measures were inactive: 0.555, inactive: -0.866 and inactive: -0.224.
For `Cc1cnc(NC(=O)Nc2cc(Br)c(C)cc2OC[C@@H]2CNCCO2)cn1` [rabusertib], the TEAD-luciferase reporter activity (compound concentration: 200 nM) was inactive: -0.592, the TEAD-luciferase reporter activity (compound concentration: 2 uM) is inactive: -0.794 and the TEAD-luciferase reporter activity (compound concentration: 10 uM) is inactive: -2.35.
Regarding `CCCCOP(=O)(O)OC[C@H]1O[C@@H](n2cc(C)c(=O)[nH]c2=O)C[C@@H]1OP(=O)(O)OCCCC` [bisphosphocins, Lakewood-Amedex], the TEAD-luciferase reporter activity reads like this: (compound concentration: 200 nM) inactive: -0.244; (compound concentration: 2 uM) inactive: 0.134; (compound concentration: 10 uM) inactive: 3.04.
For the molecule `COC(=O)C1=C(C)NC(C)=C(C(=O)OCCCN2C(=O)c3ccccc3S2(=O)=O)C1c1cccc(Cl)c1Cl` (stereo unspecified), the TEAD-luciferase reporter activity (compound concentration: 200 nM) was inactive: -2.06, the TEAD-luciferase reporter activity (compound concentration: 2 uM) was inactive: -1.46 and the TEAD-luciferase reporter activity (compound concentration: 10 uM) was inactive: -1.1.
For `C[C@@H]1N=C(N)NC(N(C)C)=N1` [imeglimin] the same measures were inactive: -0.81, inactive: -1.21 and inactive: 0.389.
As for `Cc1cccnc1NS(=O)(=O)c1ccc(C#Cc2ccc(O)c(C(=O)O)c2)cc1`, the TEAD-luciferase reporter activity (compound concentration: 200 nM) was inactive: -0.599, the TEAD-luciferase reporter activity (compound concentration: 2 uM) was inactive: -0.41 and the TEAD-luciferase reporter activity (compound concentration: 10 uM) was inactive: 0.962.
As to `O=C(C1CCCN(C(=O)C2CC2)C1)N1CCC(N2CCCC2=O)CC1` (stereo unspecified), the TEAD-luciferase reporter activity is, setting by setting: (compound concentration: 200 nM) inactive: -1.75; (compound concentration: 10 uM) inactive: 0.032.
Turning to `C[C@@H](O)c1nc2cnc3ccsc3c2n1[C@H]1CC[C@@H](CC#N)OC1`, the TEAD-luciferase reporter activity was inactive: -1.07 (compound concentration: 200 nM), inactive: 1.01 (compound concentration: 2 uM) and inactive: -0.0837 (compound concentration: 10 uM).
Consider `COc1cc2c(cc1OC)C(=O)C(CN1CCC(O)(c3ccccc3)CC1)CC2` (stereo unspecified), for which the TEAD-luciferase reporter activity runs as follows: (compound concentration: 200 nM) inactive: 0.0543; (compound concentration: 2 uM) inactive: 0.0529; (compound concentration: 10 uM) inactive: 1.27.
As to `CC(C)(C(=O)O)c1ccc(C(O)CCCN2CCC(C(O)(c3ccccc3)c3ccccc3)CC2)cc1` (stereo unspecified), the TEAD-luciferase reporter activity by setting is: (compound concentration: 200 nM) inactive: -1.44; (compound concentration: 10 uM) inactive: -0.225.
With `CC(C)(C(=O)O)c1ccc(C(O)CCCN2CCC(C(O)(c3ccccc3)c3ccccc3)CC2)cc1` (stereo unspecified) [fexofenadine, daily], the TEAD-luciferase reporter activity (compound concentration: 2 uM) was inactive: -1.05.
Regarding `CCS(=O)(=O)c1ccc(OC)c(Nc2cccc(N(C)c3ccc4c(C)n[nH]c4c3)n2)c1`, the TEAD-luciferase reporter activity by setting is: (compound concentration: 200 nM) inactive: 1.29; (compound concentration: 2 uM) inactive: -1.38; (compound concentration: 10 uM) inactive: -1.07.
